Results published in patent US9169252B2 (BRISTOL-MYERS SQUIBB COMPANY, priority 2014, dated 2015).

Test system: TLR2 induced IL-6 in peripheral blood mononuclear cells (PBMCs)
Assay: PBMC TLR2 Induced IL-6 Assay
Type: cell-based
Conditions: Homo sapiens, read-out: Cell EC50
Method: PBMC TLR2 Induced IL-6 Assay
Peripheral blood mononuclear cells (PBMCs) were isolated from human blood containing the anti-coagulant EDTA (2.5 mM) by centrifugation over a FICOLL® gradient. PBMCs (250000 cells/well) were cultured in assay media (RPMI with 10% heat inactivated FCS) with compounds for 30 minutes at 37° C. in a 5% CO2 incubator. Following pretreatment with compounds, cells were stimulated for 5 hours with 10 µg/ml lipoteichoic acid (Invivogen, San Diego, Calif.), a TLR2 agonist. At the end of the culture, plates were centrifuged at 1800 rpm for 10 minutes to pellet the cells. Supernatants were harvested and analyzed for IL-6 levels by ELISA (BD Biosciences, San Jose, Calif.).

For CC(C)(O)[C@H](F)CNC(=O)c1cnc(-n2cnc3cc(C#N)cnc32)cc1NC1COC1 [Example 333, (R)-6-(6-Cyano-3H-imidazo[4,5-b]pyridin-3-yl)-N-(2-fluoro-3-hydroxy-3-methylbutyl)-4-(oxetan-3-ylamino)nicotinamide], which EC50 is on record?
Its EC50 is 524 nM.
